Source: publication PMC3506444
No constants are given. Whether binding was seen depends on the method and setting. Some binding calls cover weakened binding; strength is not graded here.

By UniProt entry, the sequences of proteins in these tests, tags left out. Residues count along the entry.
UniProt P12314, residues 16-374: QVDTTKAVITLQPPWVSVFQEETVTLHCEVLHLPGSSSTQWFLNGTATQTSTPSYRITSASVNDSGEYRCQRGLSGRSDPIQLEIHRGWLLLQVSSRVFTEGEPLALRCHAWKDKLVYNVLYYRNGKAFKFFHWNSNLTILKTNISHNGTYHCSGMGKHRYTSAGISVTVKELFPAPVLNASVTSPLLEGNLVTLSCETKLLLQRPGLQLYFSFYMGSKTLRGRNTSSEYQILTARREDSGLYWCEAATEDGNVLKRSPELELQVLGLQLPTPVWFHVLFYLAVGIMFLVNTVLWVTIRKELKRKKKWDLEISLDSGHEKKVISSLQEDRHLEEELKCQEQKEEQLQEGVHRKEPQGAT
UniProt P12318, residues 34-317: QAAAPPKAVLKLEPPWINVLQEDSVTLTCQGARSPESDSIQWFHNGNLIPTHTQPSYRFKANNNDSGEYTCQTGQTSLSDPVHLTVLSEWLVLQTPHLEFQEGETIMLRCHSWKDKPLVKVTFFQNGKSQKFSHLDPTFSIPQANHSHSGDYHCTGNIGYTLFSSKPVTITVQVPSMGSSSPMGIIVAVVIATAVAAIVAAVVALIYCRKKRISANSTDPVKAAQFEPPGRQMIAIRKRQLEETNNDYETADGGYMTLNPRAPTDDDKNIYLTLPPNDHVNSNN

Legend:
FcγRIA [1] = biological target: FcγRIA (UniProt P12314); experiment: flow cytometry on cells; 293FT cells transfected with FcγRIA or FcγRIIA, incubated with CRP alone (up to 10 μg/ml) for 30 min at room temperature in DMEM; cell-bound CRP labelled with anti-CRP mouse IgG (clone CRP-8) and FITC goat anti-mouse; non-specific binding from mock-transfected cells; Kd and Bmax by PRISM; only the binder purified
FcγRIIA [2] = biological target: FcγRIIA (UniProt P12318); experiment: as above
FcγRIA [3] = biological target: FcγRIA (UniProt P12314); experiment: flow cytometry on cells; as a1, but with the CRP-LPC complex (CRP preincubated with lysophosphatidylcholine, 1:1 w:w) instead of CRP alone, up to 10 μg/ml, 30 min at room temperature; non-specific binding from mock-transfected cells; Kd and Bmax by PRISM; only the binder purified
FcγRIIA [4] = biological target: FcγRIIA (UniProt P12318); experiment: as above

Measured: binding

B1: human recombinant C-reactive protein (protein, UniProt P02741-1 19-224)
chain: QTDMSRKAFVFPKESDTSYVSLKAPLTKPLKAFTVCLHFYTELSSTRGYSIFSYATKRQDNEILIFWSKDIGYSFTVGGSEILFEVPEVTVAPVHICTSWESASGIVEFWVDGKPRVRKSLKKGYTVGAEASIILGQEQDSFGGNFEGSQSLVGDIGNVNMWDFVLSPDEINTIYLGGPFSPNVLNWRALKYEVQGEVFTKPQLWP
binds: all assays above
